According to patent publication EP0324626A1, “1,4-Dihydropyridine derivatives” (priority 1988, dated 1989):

Experiment: Acute toxicity test (limit test and range finding test), oral administration
Conditions: both, ICR, mouse, in vivo
Protocol: The limit test and the range finding test were carried out using the SPF mice, as stated below, and LD₅₀ values were determined.
The dead mice are weighed and organ examinations are carried out for macroscopical lesions. Also, on the last day of the test all surviving mice are sacrificed and used for examinations.
If the mortality is more than 50% in the limit test, the range finding test is carried out for 14 days with three doses groups including the putative LD₅₀ value. The method is same as the foregoing limit test.

COC(=O)C1=C(C)NC(C)=C(C(=O)OC)C1c1ccccc1[N+](=O)[O-] [Nifedipine, reference compound]
LD50 at 14 days: < 500 mg/kg
